The nature of this experiment: qHTS Assay for Lipid Storage Modulators in Drosophila S3 Cells.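 On cell number change: cells counted by Cell Tracker Red CMTPX staining in the red channel.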 As to conditions: BODIPY lipid droplet fluorescence, 18-24 h; for cell number change: measured here: cell count max response, cells fed with added oleic acid. In short, it runs like this: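 Drosophila S3 cells got compounds at several concentrations plus oleic acid (400 uM solution). Laser-scanning cytometry with 488 nm excitation read lipid droplets at 500-530 nm and cells at 575-640 nm. Percent activity was relative to 20 uM Triacsin C.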

[1] abbreviates: measured here: lipid fluorescence (Fed channel) AC50, cells fed with added oleic acid.
Where [2] appears, read: measured here: cell number channel AC50, cells fed with added oleic acid.

The list shows a part of the results. The main result of the screen is listed elsewhere. These columns were measured beside it and carry no call. Compounds called inactive in the main read-out are mostly missing here. Potencies come from curve fits of mixed quality, noted in brackets.

The AC50 is the concentration at which the activity in the assay is half-maximal. A lower AC50 goes with activity at low concentration. Consider `CCOC(=O)c1cc(C(=O)OCC)c2cccc(C)n2c1=O`, for which the cell number change is -12.7%. Moreover, under setting [1], the AC50 is 0.184 µM [falling, full curve, poor fit].
For `CCc1nc(Nc2ccc3c(c2)OCO3)c2oc3ccccc3c2n1`, the cell number change is -20.9%. Also, the AC50 under setting [1] was 23.1 µM [falling, single point].
Regarding `COc1ccc(OCCC(=O)OCC(=O)Nc2cccc(S(=O)(=O)N3CCOCC3)c2)cc1`, the cell number change is -23.2%. Besides, the AC50 under setting [2] was 0.13 µM [falling, full curve, poor fit]. Under setting [1], the AC50 was 0.13 µM [falling, full curve, poor fit].
As to `COc1ccc(CCNC(=O)CCC(=O)c2cccs2)cc1OC`, the cell number change is -20.7%. Also, the half-maximal activity concentration (AC50) under setting [2] is 3.26 µM [falling, single point]. Further, under setting [1], the AC50 is 3.26 µM [falling, partial curve].
With `N#Cc1nc(COc2ccc(Br)cc2)oc1NCCCn1ccnc1`, the AC50 under setting [2] was 0.411 µM [rising, partial curve, poor fit].
In the case of `CCCCn1c(SCc2cc(=O)n3ccsc3n2)nc2cc(C(=O)OC)ccc2c1=O`, the cell number change was -3.88%. For the same molecule, the concentration at half-maximal activity (AC50) under setting [1] is 6.51 µM [rising, single point].
Consider `Cn1c(Oc2ccc(F)cc2)c(C=O)c2ccccc21`, for which the cell number change stood at 20.9%. Further, the AC50 under setting [1] was 0.0517 µM [falling, full curve, poor fit].
Take `COC(=O)c1c(NC(=O)c2ccccc2[N+](=O)[O-])sc2c1CC(C)(C)NC2(C)C`: the cell number change is -5.16%. For the same molecule, the AC50 under setting [1] was 0.0517 µM [rising, full curve, poor fit].
In the case of `CCOC(=O)c1[nH]c2ccc(Cl)cc2c1-c1ccccc1`, the cell number change was -48.3%. Besides, under setting [2], the concentration at half-maximal activity (AC50) is 29.1 µM [falling, partial curve]. For the same molecule, under setting [1], the concentration at half-maximal activity (AC50) is 32.6 µM [falling, single point].
As to `O=C(O)c1n[nH]c2c1CCCCC2`, the cell number change is -4.34%. Besides, under setting [1], the concentration at half-maximal activity (AC50) is 0.0259 µM [falling, full curve, poor fit].
For `COc1cccc(C(=O)N2CCN=C2SC)c1`, the cell number change was -1.03%. In addition, under setting [2], the concentration at half-maximal activity (AC50) is 0.731 µM [rising, partial curve, poor fit].
Consider `O=C(c1ccc(OC2CCN(Cc3cccc(OCCO)c3)CC2)cc1)N1CCCC1`, for which the cell number change was 31.3%. Moreover, the AC50 under setting [2] was 32.6 µM [rising, single point]. For the same molecule, the AC50 under setting [1] is 29.1 µM [rising, single point].
With `CCOC(=O)c1ccc(NC(=O)CSc2nc3ncccc3[nH]2)cc1`, the cell number change is -44.5%. The concentration at half-maximal activity (AC50) under setting [2] is 29.1 µM [falling, single point]. Moreover, the half-maximal activity concentration (AC50) under setting [1] is 14.6 µM [falling, partial curve].
With `NC(=NCCc1c[nH]c2ccccc12)NS(=O)(=O)c1ccc(F)cc1`, the cell number change turned out to be 16.6%.
Take `Cc1cc(C)n(C(=O)c2ccc(NC(=O)C3CC3)cc2)n1`: the cell number change was determined as 63.7%. Moreover, under setting [2], the AC50 was 20.6 µM [rising, single point]. The concentration at half-maximal activity (AC50) under setting [1] was 0.58 µM [rising, single point].
On to `O=C(CCn1[nH]c(=O)c2ccccc2c1=O)NCCO`, for which, under setting [1], the AC50 was 1.46 µM [falling, partial curve].
In the case of `COCC1CCCN(C(=O)c2cc(COc3ccc4ncccc4c3)on2)C1` (configuration not stated), the cell number change was -23.2%. Moreover, the AC50 under setting [1] was 6.51 µM [rising, single point].
Consider `C/C(=N\NC(=O)c1c(Br)c(C)nn1C)c1ccc(NC(=O)c2ccoc2C)cc1`, for which the cell number change is 26.1%. In addition, under setting [2], the AC50 is 0.82 µM [rising, full curve, poor fit]. Further, the concentration at half-maximal activity (AC50) under setting [1] was 1.64 µM [rising, partial curve].
Turning to `CCc1ccc(NC2=CC(=O)CC(C)(C)C2)cc1`, the AC50 under setting [1] was 25.9 µM [falling, partial curve, poor fit].
Take `CC(Sc1nc(-c2ccccc2)nc2c1COC(C)(C)C2)C(=O)N1CCOCC1` (configuration not stated): the cell number change is 107%. In addition, the AC50 under setting [2] was 8.2 µM [rising, partial curve]. Besides, the concentration at half-maximal activity (AC50) under setting [1] was 4.61 µM [rising, full curve].
For `CCOc1cc(CN2CCN(CCOCCO)CC2)ccc1OC`, the cell number change was -79.8%. In addition, the AC50 under setting [2] is 29.1 µM [falling, single point].
As to `Cc1cc(NC(=O)CSc2nnc(CNC(=O)c3c(F)cccc3F)o2)no1`, under setting [2], the concentration at half-maximal activity (AC50) was 1.84 µM [falling, partial curve].
Turning to `COc1ccc(Nc2nc(N)nc(CSC(=S)N3CCCCC3)n2)cc1`, the cell number change stood at 25.9%. Further, the AC50 under setting [2] is 4.61 µM [rising, partial curve, poor fit]. In addition, under setting [1], the AC50 was 0.58 µM [rising, full curve, poor fit].
With `O=C(Nc1ccc(Cl)cc1-c1nc2ccccc2s1)c1ccco1`, the AC50 under setting [1] was 1.03 µM [falling, partial curve].
For `CCOc1cc(C(=O)Nc2ccc(S(=O)(=O)NC3=NCCCCC3)cc2)cc(OCC)c1OCC`, the cell number change came to 7.51%.
As for `COc1ccc(CN(CC(=O)NC2CCCC2)C(=O)CCC(=O)Nc2nccs2)cc1`, the cell number change was -23.8%. Besides, the AC50 under setting [1] was 18.4 µM [falling, single point].
With `N#Cc1c2c(c(=S)n(-c3ccccc3)c1N)CCCC2`, the cell number change stood at 15.3%. Also, under setting [1], the half-maximal activity concentration (AC50) was 6.51 µM [rising, partial curve, poor fit].
Consider `Cc1cc(-n2cnnn2)ccc1C(C)C`, for which the cell number change is 10.7%.
Regarding `O=S(=O)(c1cnccc1N1CCN(/N=C/c2ccc(Cl)cc2)CC1)N1CCCCC1`, the cell number change amounted to 2.14%. The AC50 under setting [1] was 8.2 µM [rising, single point].
For the molecule `O=C(COc1ccc(/C=N/NC(=O)c2ccc(O)cc2)cc1)Nc1cccc([N+](=O)[O-])c1`, the cell number change is -23%.
As to `CC(=O)c1cccc(NC(=S)N2CCN(S(=O)(=O)c3ccc(F)cc3)CC2)c1`, the cell number change was found to be 9.54%.
As to `O=C(CN(CC1CCCO1)C(=O)CNS(=O)(=O)c1ccc(Cl)cc1)NCc1ccc(F)cc1` (configuration not stated), the cell number change came to 2.08%.
Still for that read-out and setting: to `O=C(CSc1nnc(-c2ccncc2)n1CCc1ccccc1)N1CCCC1` belongs 8.39%.
For the molecule `CCCOc1ccc(/C(O)=C2/C(=O)C(=O)N(c3ccccn3)C2c2ccc(OC)cc2)cc1C` (configuration not stated), the cell number change is -33.5%. For the same molecule, the AC50 under setting [2] is 16.4 µM [falling, single point]. In addition, the AC50 under setting [1] is 10.3 µM [falling, partial curve].
With `Cc1cc(-n2c(SCC(=O)Nc3ccc(Br)cc3)nc3n[nH]c(C)c3c2=N)ccc1Cl`, the cell number change was -19.8%. Moreover, the concentration at half-maximal activity (AC50) under setting [1] is 18.4 µM [falling, partial curve].
`Cc1cnc(NC(=O)CCc2ccccc2)s1`: the cell number change was 21.4%. Also, the concentration at half-maximal activity (AC50) under setting [1] was 29.1 µM [rising, single point].
Take `COc1ccc(N2CC(C(=O)N3CCN(C)CC3)CC2=O)cc1` (configuration not stated): the cell number change is -44.4%. For the same molecule, the half-maximal activity concentration (AC50) under setting [1] was 0.58 µM [rising, single point].

The values are drawn from PubChem BioAssay AID2685 (National Center for Advancing Translational Sciences (NCATS), 2010).
